# Experimental data: patent US20120045785A1
# No constants are given. Whether binding was seen depends on the method and setting. Some entries that bind do so weakly or less than the wild type.
# B1: HtubA (Hybrid tubulin A; hybrid bacterial-bovine tubulin A) (designed binder, not shown: large carriers)
# chain: MKVNNTIVVSIGQAGNQIAASFWKTVCLEHGIDPLTGQTAPGVAPRGNWSSFFSKLGESSSGSYVPRAIMVDLEPSVIDNVKATSGSLFNPANLISRTEGAGGNFAVGYLGAGREVLPEVMSRLDYEIDKCDNVGGIIVLHAIGGGTGSGFGALLISSLREEYPDIPVLSCAVLPSPQVSSVVTEPYNTVFALHQLVENADACLIFDNEALFDLAHRKWNIESPTVDDLNLLITEALAGITASMRFSGFLTVEITLRELLTNLVPQPRLHFLMCAFAPLTPPDRSKFEELGIEEMIKSLFDNGSVFAACSPMEGRFLSTAVLYRGIMEDKPLADAALAAMREKLPLTEWIPTAFKIGYVEQPGISHRKSMVLLANNTEIARVLDRICHNFDKLWQRKAFANWYLNEGMDEMEITELRSNANDLVSEYQQAQDSGAKAKVQDSAGDTGMRAAAAGVSDDARGSMSLRDLVDRRR
# Target: HtubB (Hybrid tubulin B; hybrid bacterial-bovine tubulin B) (Prosthecobacter dejongeii)
# Test: gel filtration chromatography of a 1:1 mixture of the purified proteins
binder,measurement,value
B1,binding,binds
